Test results as given in the supplement of paper PMC3334620.
Over roughly 33,000 sequences, “E-score (-0.5 to 0.5)” has its median near -0.015; the highest 2% begin near 0.3. The list shows a part of the results.

What follows are sequences tested against T1, Abf1 (UniProt P14164) (assay: PBM E-score (8-mer binding enrichment) (E-score (-0.5 to 0.5)); higher = stronger / more preferred TF binding). Settings: protein concentration: 200 nM; construct: GST-full length.
T1 sequence: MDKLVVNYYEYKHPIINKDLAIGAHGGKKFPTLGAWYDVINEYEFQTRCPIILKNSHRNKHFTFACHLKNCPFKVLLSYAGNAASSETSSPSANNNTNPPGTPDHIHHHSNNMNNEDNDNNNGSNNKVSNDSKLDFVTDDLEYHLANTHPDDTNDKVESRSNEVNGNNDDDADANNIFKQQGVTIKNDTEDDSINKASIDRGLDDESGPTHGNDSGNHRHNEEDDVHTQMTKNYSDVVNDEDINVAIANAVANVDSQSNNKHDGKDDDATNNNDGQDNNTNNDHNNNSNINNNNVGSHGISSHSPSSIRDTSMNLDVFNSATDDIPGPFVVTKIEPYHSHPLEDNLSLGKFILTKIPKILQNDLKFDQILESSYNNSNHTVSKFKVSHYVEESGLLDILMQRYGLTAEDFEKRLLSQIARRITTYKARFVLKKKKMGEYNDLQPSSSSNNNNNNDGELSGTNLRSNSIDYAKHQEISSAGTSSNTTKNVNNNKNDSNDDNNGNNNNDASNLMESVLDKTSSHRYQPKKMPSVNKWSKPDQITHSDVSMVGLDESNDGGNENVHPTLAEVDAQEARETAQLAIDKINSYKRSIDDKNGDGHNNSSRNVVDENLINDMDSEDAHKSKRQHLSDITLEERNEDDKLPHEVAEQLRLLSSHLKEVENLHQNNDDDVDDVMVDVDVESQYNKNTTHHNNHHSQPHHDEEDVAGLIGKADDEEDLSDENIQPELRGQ
Experimental: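 Universal 'all 10-mer' protein binding microarrays (Agilent AMADID 015681) probed with GST-tagged S. cerevisiae TFs (full-length or DBD) made by in vitro transcription/translation (PURExpress), about 100-200 nM. Bound TF was detected with fluorescent anti-GST. Each ungapped 8-mer (which stands for itself and its reverse complement) is scored by the PBM enrichment score (E-score), a modified Wilcoxon-Mann-Whitney statistic from -0.5 to +0.5, computed with the Universal PBM Analysis Suite. Scale: above 0.35 generally sequence-specific binding.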

| Sequence | PBM E-score |
| --- | --- |
| CCGCACAC | -0.0593 |
| CAAATCAA | 0.0796 |
| CAAGTATG | 0.114 |
| TCGAGCGA | 0.0549 |
| ACACAAAG | -0.11 |
| ACAGTACA | 0.015 |
| AATTGTCC | -0.0973 |
| AGATCGGA | -0.123 |
| CCTGATTA | 0.162 |
| CCGACTGA | 0.011 |
| AATAGGGT | -0.146 |
| CCGACGCC | -0.229 |
| CACACTCA | 0.213 |
| CCCGGGCC | -0.304 |
| ATGTGGCG | -0.0935 |
| GCCCTCGC | -0.161 |
| GTGTATAA | -0.123 |
| AGCCTCCC | -0.204 |
| ATACACTA | 0.0538 |
| AATCCTTA | -0.00948 |
| CCTTTAAC | 0.196 |
| GAAGTCAA | 0.158 |
| AGCCTTTC | -0.176 |
| ATTCAACA | 0.119 |

| Sequence | PBM E-score |
| --- | --- |
| ATAGTCAT | 0.198 |
| AAAAGCCT | -0.15 |
| CCCCCCCG | -0.328 |
| ATTCGCGA | 0.094 |
| CACGCTCC | -0.00778 |
| CAGATATA | 0.167 |
| CGAATCCG | -0.0867 |
| CGCATGTA | 0.135 |
| CGTACAAG | 0.357 |
| CTAATTCA | 0.0988 |
| AGTTATAA | -0.0216 |
| ATGTCGTG | 0.277 |
| CAGTGAAA | 0.0736 |
| ATGTCTGA | 0.0406 |
| ACTGTTAC | -0.108 |
| AAGCTCGA | -0.05 |
| CCATTTTC | 0.178 |
| AGTTATGC | 0.0932 |
| ACAGCACC | -0.107 |
| ACCGCCTA | -0.0219 |
| ACCAAGCA | -0.134 |
| ACAGCCGG | -0.0292 |
| CATATTAA | 0.315 |
| GGTTTGGA | 0.0886 |

In a second layout: entries from further up.
Sequence,PBM E-score
CAAATCAA,0.0796
CAAGTATG,0.114
TCGAGCGA,0.0549
ACACAAAG,-0.11
ACAGTACA,0.015
AATTGTCC,-0.0973
AGATCGGA,-0.123
CCTGATTA,0.162
CCGACTGA,0.011
AATAGGGT,-0.146
CCGACGCC,-0.229
CACACTCA,0.213
CCCGGGCC,-0.304
ATGTGGCG,-0.0935
GCCCTCGC,-0.161
GTGTATAA,-0.123
AGCCTCCC,-0.204
ATACACTA,0.0538
AATCCTTA,-0.00948
CCTTTAAC,0.196
GAAGTCAA,0.158
AGCCTTTC,-0.176
ATTCAACA,0.119
ATAGTCAT,0.198

(next part)

| Sequence | PBM E-score |
| --- | --- |
| CGGGTCCC | -0.349 |
| GTCCTCAA | 0.0163 |
| AATTCTGA | -0.0156 |
| TAAGCACA | 0.0424 |
| GTGAGGGA | -0.0867 |
| ATACACTC | 0.126 |
| CTCAAGGC | -0.267 |
| CAACGTCG | 0.143 |
| GACGCGGA | -0.277 |
| ATGTGCTC | 0.133 |
| ATCCCATG | -0.14 |
| GGTCAGCA | -0.0516 |
| GCGTATAC | -0.0117 |
| CCGCATAC | 0.00647 |
| ATCCAGCA | -0.012 |
| CGTTGTAC | 0.217 |
| AGGAGAAC | -0.188 |
| ATGGAGTA | -0.0199 |
| CGCTAGTC | -0.0644 |
| GGCAGAAA | 0.132 |
| CTCGTCTA | -0.0652 |
| AAGTACAC | 0.00665 |
| ATAGGCCC | -0.356 |
| AAGCAATA | -0.161 |

| Sequence | PBM E-score |
| --- | --- |
| AACGGCTA | 0.193 |
| GTCCTCAC | 0.0512 |
| AGTTGGGG | -0.00162 |
| CGCACATA | -0.139 |
| CCAGGCCG | 0.105 |
| AGAGAGCT | -0.278 |
| CAAAAGGA | 0.11 |
| GACGAACA | 0.253 |
| ATTCAAGA | 0.058 |
| ATCCAAAT | -0.0232 |
| TGACTCAA | 0.184 |
| GAAAACCA | -0.112 |
| ATCGCATA | 0.0573 |
| ATGGGATA | -0.152 |
| GGTCCTTA | -0.113 |
| AGATTCCG | 0.183 |
| ACTGCTCA | 0.143 |
| CCCTCTTC | -0.156 |
| ATTCCCAA | 0.0326 |
| GCGGGCCC | -0.138 |
| ACATTAAC | 0.0514 |
| GTTTTTCA | -0.0368 |

Not a retest: an excerpt of the list.

| Sequence | PBM E-score |
| --- | --- |
| ATCGCATA | 0.0573 |
| ATGGGATA | -0.152 |
